PubChem BioAssay AID504795 – Drosophila RNAi Screening Center, 2011
Aim: 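Genes required for normal axon extension and glial cell shape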 (primary screen). Cell system: primary Drosophila neurons and glia. Reagent: long dsRNA against Drosophila genes, 250 ng dsRNA per well. Time to read-out: one week. Detection: 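Descriptive morphology terms assigned by visual inspection of live automated images of GFP-marked cells, taken one week after adding 250 ng dsRNA per well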.
This is not the whole library: the list holds selected reagents. 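Every listed dsRNA shows some phenotype; how reagents were selected for listing is not stated.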 A plus sign joins genes that one reagent is predicted to hit.

predicted target | dsRNA | phenotype seen, replicate 1 | phenotype seen, replicate 2
Ciz1 | DRSC09675 | abnormal cell clusters | –
ACXC | DRSC00846 | too many neurite branches | –
plh | DRSC12294 | axon bundles split apart | –
RpL38 | DRSC07818 | weaker green signal | –
RasGAP1 | DRSC11172 | axon bundles split apart | –
CG5890 | DRSC15909 | abnormal cell clusters | –
CG13085 | DRSC02189 | axon bundles split apart | –
RpL35A | DRSC12302 | too many neurite branches | –
promL | DRSC08733 | beaded; swollen axons | –
Jon99Fii | DRSC15430 | too many neurite branches | –
vg | DRSC07715 | axon bundles split apart | too many neurite branches
CG10205 | DRSC05979 | fewer cells | –
CG4962 | DRSC10464 | too many neurite branches | –
CG7054 | DRSC16185 | axon bundles split apart | –
CG43867 | DRSC17836 | reduced axon outgrowth | –
Cpsf100 | DRSC14146 | beaded; swollen axons | –
beat-VII | DRSC14743 | beaded; swollen axons | –
beat-VII | DRSC14744 | reduced axon outgrowth | –
Amy-d | DRSC05919 | abnormal cell clusters | –
Diap1 | DRSC11404 | fewer cells | –
bru3 | DRSC09887 | cell fragments present | –
Vmat | DRSC06962 | sheet-like cell extensions | –
Mcm5 | DRSC16735 | fewer cells | –
Mical | DRSC14351 | abnormal cell clusters | –
SH3PX1 | DRSC11139 | cell fragments present | –
CG4537 | DRSC02756 | axon bundles split apart | –
BNIP3 | DRSC11761 | abnormal cell clusters | –
Eip93F | DRSC21754 | beaded; swollen axons | –
Gpdh1 | DRSC03336 | reduced axon outgrowth | –
CG7044 | DRSC16180 | axon bundles split apart | –
Tif-IA | DRSC03726 | axon bundles split apart | –
TfIIFbeta | DRSC16884 | abnormal cell clusters | –
TfIIFbeta | DRSC21447 | axon bundles split apart | –
Idh3g | DRSC15699 | too many neurite branches | –
Rpt4 | DRSC18713 | sheet-like cell extensions | –
CG31683 + CG18858 | DRSC02703 | too many neurite branches | –
Blm + CG14721 | DRSC14943 | fewer cells | –
Dop1R1 | DRSC16652 | axon bundles split apart | –
RIC-3 | DRSC04543 | axon bundles split apart | –
BEAF-32 | DRSC05927 | too many neurite branches | –
CG6686 | DRSC02979 | beaded; swollen axons | –
CG9503 | DRSC21766 | fewer cells | –
CG34284 | DRSC14773 | too many neurite branches | –
Nlg1 | DRSC12533 | reduced axon outgrowth | –
CG11155 | DRSC17205 | too many neurite branches | –
CG31259 | DRSC14366 | abnormal cell clusters | –
beta'COP | DRSC03492 | reduced axon outgrowth | –
Cpr78Ca | DRSC11651 | abnormal cell clusters | –
Muc18B | DRSC20064 | too many neurite branches | –
Tango8 | DRSC06474 | abnormal cell clusters | –
Rnmt | DRSC03558 | axon bundles split apart | –
Mob2 | DRSC09119 | abnormal cell clusters | –
eIF3c | DRSC06905 | reduced axon outgrowth | –
Sec23 | DRSC12387 | too many neurite branches | –
Muc68E | DRSC09146 | too many neurite branches | –
Syt14 | DRSC12331 | beaded; swollen axons | –
Rbbp5 + CG6434 (retired record) | DRSC10635 | reduced axon outgrowth | –
Vha100-5 | DRSC02175 | fewer cells | –
CG18420 | DRSC01954 | axon bundles split apart | –
MnM | DRSC08423 | too many neurite branches | –
CG14777 | DRSC18563 | too many neurite branches | –
Coq2 | DRSC21366 | sheet-like cell extensions | –
CG30291 | DRSC03842 | weaker green signal | –
CG11889 + CG11891 | DRSC14426 | abnormal cell clusters | –
CG7369 | DRSC11822 | axon bundles split apart | –
ssp5 | DRSC14955 | axon bundles split apart | –
CG6569 | DRSC16067 | axon bundles split apart | –
Orp8 | DRSC15110 | beaded; swollen axons | –
Obp83cd | DRSC12267 | axon bundles split apart | –
srw | DRSC08201 | too many neurite branches | –
CG7706 | DRSC16295 | beaded; swollen axons | –
CG1513 | DRSC06554 | axon bundles split apart | –
E(spl)m3-HLH | DRSC16694 | axon bundles split apart | –
Ir51b | DRSC05540 | axon bundles split apart | –

In a second layout: 11 of the entries above
{"predicted target":"Mcm5","dsRNA":"DRSC16735","phenotype seen, replicate 1":"fewer cells"}
{"predicted target":"Mical","dsRNA":"DRSC14351","phenotype seen, replicate 1":"abnormal cell clusters"}
{"predicted target":"SH3PX1","dsRNA":"DRSC11139","phenotype seen, replicate 1":"cell fragments present"}
{"predicted target":"CG4537","dsRNA":"DRSC02756","phenotype seen, replicate 1":"axon bundles split apart"}
{"predicted target":"BNIP3","dsRNA":"DRSC11761","phenotype seen, replicate 1":"abnormal cell clusters"}
{"predicted target":"Eip93F","dsRNA":"DRSC21754","phenotype seen, replicate 1":"beaded; swollen axons"}
{"predicted target":"Gpdh1","dsRNA":"DRSC03336","phenotype seen, replicate 1":"reduced axon outgrowth"}
{"predicted target":"CG7044","dsRNA":"DRSC16180","phenotype seen, replicate 1":"axon bundles split apart"}
{"predicted target":"Tif-IA","dsRNA":"DRSC03726","phenotype seen, replicate 1":"axon bundles split apart"}
{"predicted target":"TfIIFbeta","dsRNA":"DRSC16884","phenotype seen, replicate 1":"abnormal cell clusters"}
{"predicted target":"TfIIFbeta","dsRNA":"DRSC21447","phenotype seen, replicate 1":"axon bundles split apart"}
